From doi:10.1101/2025.10.16.682774 (bioRxiv, 2025)

Protein sequences, listed by entry. Tags and fused reporters are not part of them.
UniProt Q99996: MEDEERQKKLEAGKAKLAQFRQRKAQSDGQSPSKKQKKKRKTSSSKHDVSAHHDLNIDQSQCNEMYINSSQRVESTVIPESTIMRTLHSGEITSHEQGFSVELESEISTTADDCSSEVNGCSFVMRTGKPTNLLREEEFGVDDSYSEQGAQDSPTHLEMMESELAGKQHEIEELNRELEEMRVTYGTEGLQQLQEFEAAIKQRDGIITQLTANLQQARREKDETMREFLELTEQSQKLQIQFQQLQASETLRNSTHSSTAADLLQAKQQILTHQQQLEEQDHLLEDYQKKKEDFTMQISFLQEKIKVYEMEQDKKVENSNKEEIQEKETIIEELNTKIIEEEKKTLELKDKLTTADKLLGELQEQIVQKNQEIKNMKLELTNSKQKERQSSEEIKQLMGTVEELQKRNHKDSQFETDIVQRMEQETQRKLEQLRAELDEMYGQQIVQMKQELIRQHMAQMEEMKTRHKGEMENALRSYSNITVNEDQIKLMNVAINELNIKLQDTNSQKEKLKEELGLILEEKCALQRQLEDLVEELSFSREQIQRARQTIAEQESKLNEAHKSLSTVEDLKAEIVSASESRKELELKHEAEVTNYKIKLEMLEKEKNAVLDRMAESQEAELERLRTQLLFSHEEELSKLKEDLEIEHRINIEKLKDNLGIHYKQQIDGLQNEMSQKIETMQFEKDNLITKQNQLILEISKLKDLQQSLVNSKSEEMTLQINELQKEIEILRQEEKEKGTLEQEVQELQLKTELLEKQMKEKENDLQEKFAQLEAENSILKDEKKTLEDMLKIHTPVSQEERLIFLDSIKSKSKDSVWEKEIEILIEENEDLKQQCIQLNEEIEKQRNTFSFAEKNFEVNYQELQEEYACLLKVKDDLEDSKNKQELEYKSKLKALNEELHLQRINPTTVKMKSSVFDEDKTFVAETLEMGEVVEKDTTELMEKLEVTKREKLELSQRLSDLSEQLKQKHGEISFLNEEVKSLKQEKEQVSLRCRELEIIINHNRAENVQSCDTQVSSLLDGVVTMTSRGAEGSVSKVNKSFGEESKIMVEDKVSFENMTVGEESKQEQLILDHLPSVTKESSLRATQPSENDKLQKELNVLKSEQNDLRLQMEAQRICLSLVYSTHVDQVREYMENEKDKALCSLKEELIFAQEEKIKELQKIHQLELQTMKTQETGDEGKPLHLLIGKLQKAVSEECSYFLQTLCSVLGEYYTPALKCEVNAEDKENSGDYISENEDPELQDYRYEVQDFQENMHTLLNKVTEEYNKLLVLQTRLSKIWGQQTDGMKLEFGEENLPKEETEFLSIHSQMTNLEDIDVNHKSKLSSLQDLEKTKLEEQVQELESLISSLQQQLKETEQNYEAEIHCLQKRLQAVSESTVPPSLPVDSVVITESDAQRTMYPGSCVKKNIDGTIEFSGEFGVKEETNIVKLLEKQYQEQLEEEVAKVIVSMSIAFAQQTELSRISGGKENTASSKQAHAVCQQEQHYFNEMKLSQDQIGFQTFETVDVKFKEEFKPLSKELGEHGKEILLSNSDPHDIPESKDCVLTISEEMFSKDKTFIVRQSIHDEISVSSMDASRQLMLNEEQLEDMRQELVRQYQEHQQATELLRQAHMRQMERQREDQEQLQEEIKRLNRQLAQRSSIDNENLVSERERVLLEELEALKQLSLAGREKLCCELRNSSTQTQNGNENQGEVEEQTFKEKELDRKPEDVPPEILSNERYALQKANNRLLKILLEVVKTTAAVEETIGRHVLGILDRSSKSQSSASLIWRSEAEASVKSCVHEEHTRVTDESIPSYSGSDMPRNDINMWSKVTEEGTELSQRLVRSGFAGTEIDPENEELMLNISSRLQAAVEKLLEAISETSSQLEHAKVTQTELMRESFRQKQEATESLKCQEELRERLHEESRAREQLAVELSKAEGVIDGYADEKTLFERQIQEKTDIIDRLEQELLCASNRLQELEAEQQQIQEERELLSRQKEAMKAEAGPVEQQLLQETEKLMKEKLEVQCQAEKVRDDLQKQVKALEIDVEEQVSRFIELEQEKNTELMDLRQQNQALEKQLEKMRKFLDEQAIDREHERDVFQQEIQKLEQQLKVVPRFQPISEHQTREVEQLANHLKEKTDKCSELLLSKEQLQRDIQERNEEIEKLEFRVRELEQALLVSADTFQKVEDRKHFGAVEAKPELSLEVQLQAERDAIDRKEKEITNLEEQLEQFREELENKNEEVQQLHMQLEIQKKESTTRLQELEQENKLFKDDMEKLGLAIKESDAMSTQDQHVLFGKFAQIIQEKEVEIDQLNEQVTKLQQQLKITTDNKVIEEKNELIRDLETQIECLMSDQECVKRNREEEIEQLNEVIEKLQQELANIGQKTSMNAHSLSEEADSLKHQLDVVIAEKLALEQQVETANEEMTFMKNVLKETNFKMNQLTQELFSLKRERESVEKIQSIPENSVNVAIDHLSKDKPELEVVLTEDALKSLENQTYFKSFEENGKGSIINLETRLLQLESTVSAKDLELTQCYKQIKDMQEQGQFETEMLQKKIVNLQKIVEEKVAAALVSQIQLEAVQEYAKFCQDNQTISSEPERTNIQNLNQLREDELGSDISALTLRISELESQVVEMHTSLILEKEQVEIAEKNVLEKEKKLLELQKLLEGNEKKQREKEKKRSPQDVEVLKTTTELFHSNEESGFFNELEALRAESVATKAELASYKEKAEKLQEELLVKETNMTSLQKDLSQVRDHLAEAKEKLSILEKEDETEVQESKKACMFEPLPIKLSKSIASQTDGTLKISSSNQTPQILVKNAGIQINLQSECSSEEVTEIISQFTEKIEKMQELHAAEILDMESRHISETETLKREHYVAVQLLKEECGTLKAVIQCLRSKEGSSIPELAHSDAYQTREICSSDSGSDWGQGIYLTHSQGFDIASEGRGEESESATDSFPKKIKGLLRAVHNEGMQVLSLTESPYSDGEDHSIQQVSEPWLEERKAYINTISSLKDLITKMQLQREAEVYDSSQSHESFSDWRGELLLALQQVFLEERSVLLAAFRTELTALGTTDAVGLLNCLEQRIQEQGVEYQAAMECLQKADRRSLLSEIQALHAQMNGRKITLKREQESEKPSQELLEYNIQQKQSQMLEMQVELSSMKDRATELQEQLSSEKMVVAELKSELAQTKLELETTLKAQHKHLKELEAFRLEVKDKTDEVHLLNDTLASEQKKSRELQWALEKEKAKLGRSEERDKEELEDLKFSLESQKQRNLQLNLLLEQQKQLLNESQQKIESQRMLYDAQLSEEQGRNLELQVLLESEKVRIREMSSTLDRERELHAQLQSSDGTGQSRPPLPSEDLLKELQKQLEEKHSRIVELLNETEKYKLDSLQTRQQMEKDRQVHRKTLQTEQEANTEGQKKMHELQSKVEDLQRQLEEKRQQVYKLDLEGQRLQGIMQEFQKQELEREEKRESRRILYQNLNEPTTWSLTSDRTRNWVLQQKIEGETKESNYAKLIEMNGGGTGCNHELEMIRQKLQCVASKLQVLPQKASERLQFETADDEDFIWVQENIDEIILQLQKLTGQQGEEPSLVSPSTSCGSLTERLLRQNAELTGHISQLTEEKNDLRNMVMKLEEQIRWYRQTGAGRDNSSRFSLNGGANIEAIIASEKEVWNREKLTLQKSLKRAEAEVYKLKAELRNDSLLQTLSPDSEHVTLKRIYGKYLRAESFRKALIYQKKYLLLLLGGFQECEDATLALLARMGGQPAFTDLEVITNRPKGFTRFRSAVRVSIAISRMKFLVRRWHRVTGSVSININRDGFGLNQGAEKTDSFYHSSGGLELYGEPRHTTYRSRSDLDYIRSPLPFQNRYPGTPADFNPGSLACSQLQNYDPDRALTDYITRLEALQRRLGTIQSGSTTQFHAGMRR
UniProt Q9BQQ3: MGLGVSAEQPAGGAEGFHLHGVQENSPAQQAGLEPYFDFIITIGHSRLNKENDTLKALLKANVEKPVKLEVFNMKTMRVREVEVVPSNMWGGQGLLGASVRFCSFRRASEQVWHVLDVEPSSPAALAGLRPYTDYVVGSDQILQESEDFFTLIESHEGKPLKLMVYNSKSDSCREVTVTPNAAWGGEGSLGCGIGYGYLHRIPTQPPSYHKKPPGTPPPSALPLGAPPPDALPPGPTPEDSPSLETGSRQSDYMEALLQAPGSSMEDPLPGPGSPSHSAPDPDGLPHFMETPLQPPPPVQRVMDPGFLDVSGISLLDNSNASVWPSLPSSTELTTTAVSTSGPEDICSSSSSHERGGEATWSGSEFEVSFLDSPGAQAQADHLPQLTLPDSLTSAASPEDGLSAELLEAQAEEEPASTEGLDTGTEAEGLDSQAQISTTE
UniProt Q96SN8: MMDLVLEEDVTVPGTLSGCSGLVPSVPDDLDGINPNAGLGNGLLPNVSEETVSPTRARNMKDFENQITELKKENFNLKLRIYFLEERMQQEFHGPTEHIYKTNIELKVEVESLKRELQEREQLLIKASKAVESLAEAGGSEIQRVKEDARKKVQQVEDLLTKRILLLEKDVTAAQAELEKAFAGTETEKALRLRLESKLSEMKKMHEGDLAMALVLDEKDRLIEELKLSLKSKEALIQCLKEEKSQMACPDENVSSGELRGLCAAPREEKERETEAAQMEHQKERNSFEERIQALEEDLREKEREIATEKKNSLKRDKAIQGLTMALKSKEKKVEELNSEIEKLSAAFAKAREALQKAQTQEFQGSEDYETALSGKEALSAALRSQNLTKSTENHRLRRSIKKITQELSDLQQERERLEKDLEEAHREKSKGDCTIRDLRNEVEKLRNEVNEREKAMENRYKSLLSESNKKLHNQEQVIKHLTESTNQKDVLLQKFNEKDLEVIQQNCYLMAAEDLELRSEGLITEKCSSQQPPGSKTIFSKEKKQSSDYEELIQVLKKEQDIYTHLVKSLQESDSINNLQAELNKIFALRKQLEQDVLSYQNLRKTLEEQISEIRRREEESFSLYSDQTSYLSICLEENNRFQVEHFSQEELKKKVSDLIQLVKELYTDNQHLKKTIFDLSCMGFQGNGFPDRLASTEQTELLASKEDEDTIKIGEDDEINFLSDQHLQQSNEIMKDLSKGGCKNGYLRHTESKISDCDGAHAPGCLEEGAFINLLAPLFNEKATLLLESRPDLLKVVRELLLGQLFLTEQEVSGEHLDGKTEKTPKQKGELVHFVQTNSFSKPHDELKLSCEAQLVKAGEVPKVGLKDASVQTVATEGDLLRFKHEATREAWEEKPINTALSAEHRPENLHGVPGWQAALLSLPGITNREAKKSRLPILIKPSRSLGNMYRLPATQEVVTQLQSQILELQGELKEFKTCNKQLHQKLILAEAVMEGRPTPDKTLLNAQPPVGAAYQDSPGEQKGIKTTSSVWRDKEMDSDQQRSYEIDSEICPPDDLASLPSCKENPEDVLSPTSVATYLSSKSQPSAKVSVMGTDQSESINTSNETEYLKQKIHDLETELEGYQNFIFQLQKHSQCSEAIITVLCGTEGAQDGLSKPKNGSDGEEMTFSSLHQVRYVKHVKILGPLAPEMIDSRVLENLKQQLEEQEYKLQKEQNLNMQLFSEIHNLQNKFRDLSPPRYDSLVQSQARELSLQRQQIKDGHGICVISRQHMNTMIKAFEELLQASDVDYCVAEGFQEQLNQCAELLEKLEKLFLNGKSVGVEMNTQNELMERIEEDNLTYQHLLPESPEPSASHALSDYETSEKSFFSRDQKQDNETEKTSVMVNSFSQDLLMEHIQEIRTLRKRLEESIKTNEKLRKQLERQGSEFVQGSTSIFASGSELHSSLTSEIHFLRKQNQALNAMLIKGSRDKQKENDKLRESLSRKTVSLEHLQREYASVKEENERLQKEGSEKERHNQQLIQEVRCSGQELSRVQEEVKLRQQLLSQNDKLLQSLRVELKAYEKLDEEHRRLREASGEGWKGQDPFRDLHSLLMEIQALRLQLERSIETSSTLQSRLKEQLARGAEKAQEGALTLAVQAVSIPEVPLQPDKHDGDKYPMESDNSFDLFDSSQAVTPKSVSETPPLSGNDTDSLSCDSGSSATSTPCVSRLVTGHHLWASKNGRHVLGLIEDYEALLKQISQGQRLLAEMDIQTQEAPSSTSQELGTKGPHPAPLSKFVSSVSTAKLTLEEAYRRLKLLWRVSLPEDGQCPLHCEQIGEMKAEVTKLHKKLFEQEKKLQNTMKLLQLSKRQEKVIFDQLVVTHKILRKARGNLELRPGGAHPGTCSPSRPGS

T1: full-length p115-GFP (human) (UniProt O60763)
T1 sequence: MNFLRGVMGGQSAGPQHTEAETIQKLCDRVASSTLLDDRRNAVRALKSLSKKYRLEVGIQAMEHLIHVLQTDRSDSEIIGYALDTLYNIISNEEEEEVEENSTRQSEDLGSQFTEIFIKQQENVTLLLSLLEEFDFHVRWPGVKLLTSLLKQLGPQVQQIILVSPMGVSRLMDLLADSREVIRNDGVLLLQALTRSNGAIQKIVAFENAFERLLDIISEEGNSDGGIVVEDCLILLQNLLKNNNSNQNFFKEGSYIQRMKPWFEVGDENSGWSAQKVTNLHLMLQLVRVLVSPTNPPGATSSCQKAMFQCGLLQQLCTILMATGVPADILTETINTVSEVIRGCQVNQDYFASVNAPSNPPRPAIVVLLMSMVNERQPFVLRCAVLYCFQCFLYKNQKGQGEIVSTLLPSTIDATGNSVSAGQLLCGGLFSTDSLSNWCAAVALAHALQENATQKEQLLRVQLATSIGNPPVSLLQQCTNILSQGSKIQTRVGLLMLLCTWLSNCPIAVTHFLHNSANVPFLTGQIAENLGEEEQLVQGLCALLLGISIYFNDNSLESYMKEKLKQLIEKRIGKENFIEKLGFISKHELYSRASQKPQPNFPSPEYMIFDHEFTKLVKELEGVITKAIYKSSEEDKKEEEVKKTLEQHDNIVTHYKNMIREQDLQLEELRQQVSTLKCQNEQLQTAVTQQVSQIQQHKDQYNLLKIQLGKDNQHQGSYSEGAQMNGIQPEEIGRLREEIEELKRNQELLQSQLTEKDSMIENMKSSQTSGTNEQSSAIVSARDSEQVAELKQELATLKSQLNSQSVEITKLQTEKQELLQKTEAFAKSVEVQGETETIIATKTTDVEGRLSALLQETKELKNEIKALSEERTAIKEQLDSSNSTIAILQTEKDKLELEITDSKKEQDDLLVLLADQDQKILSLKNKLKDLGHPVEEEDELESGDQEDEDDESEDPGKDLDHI

T2: full-length p115-GFP Q462D (human) (UniProt O60763)
T2 sequence: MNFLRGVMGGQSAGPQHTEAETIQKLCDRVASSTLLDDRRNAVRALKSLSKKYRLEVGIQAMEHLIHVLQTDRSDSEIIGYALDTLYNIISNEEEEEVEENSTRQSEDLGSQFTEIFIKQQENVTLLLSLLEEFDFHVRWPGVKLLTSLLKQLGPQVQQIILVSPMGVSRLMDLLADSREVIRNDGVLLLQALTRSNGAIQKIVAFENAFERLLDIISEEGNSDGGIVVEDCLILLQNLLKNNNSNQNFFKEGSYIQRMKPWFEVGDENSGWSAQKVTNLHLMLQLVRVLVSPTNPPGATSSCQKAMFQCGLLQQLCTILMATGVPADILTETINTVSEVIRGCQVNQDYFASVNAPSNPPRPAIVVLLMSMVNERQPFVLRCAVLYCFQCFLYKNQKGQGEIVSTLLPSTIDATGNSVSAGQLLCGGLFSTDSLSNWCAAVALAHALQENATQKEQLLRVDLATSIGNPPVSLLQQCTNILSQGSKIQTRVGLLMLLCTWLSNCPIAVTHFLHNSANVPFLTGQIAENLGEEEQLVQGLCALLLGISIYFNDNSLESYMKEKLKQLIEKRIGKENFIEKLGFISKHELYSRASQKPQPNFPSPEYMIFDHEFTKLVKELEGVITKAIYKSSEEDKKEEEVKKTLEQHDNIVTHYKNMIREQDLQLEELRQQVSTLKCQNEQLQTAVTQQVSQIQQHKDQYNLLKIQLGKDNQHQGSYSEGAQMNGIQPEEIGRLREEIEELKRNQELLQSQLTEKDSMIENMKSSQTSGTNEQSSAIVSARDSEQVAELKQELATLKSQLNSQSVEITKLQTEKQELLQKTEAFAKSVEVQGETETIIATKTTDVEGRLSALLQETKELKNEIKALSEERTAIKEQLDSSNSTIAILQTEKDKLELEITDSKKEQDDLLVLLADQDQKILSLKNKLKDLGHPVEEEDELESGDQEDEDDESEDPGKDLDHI


Tests used:
Assay in all cases: affinity purification with mass spectrometry
[1] = biological target: T1, full-length p115-GFP (human)
p115-tail-GFP (human) = biological target: p115-tail-GFP (human)
[2] = biological target: T2, full-length p115-GFP Q462D (human)

| binding [1] | binding (p115-tail-GFP (human)) | binding [2] | Molecule |
| --- | --- | --- | --- |
| binds |  |  | AKAP9 (from UniProt Q99996 1-3907) |
| binds | binds | binds | GM130 (protein, UniProt Q08379 1-1002) MWPQPRLPPRPAMSEETRQSKLAAAKKKLREYQQRNSPGVPTGAKKKKKIKNGSNPETTTSGGCHSPEDTPKDNAATLQPSDDTVLPGGVPSPGASLTSMAASQNHDADNVPNLMDETKTFSSTESLRQLSQQLNGLVCESATCVNGEGPASSANLKDLESRYQQLAVALDSSYVTNKQLNITIEKLKQQNQEITDQLEEEKKECHQKQGALREQLQVHIQTIGILVSEKAELQTALAHTQHAARQKEGESEDLASRLQYSRRRVGELERALSAVSTQQKKADRYNKELTKERDALRLELYKNTQSNEDLKQEKSELEEKLRVLVTEKAGMQLNLEELQKKLEMTELLLQQFSSRCEAPDANQQLQQAMEERAQLEAHLGQVMESVRQLQMERDKYAENLKGESAMWRQRMQQMSEQVHTLREEKECSMSRVQELETSLAELRNQMAEPPPPEPPAGPSEVEQQLQAEAEHLRKELEGLAGQLQAQVQDNEGLSRLNREQEERLLELERAAELWGEQAEARRQILETMQNDRTTISRALSQNRELKEQLAELQSGFVKLTNENMEITSALQSEQHVKRELGKKLGELQEKLSELKETVELKSQEAQSLQQQRDQYLGHLQQYVAAYQQLTSEKEVLHNQLLLQTQLVDQLQQQEAQGKAVAEMARQELQETQERLEAATQQNQQLRAQLSLMAHPGEGDGLDREEEEDEEEEEEEAVAVPQPMPSIPEDLESREAMVAFFNSAVASAEEEQARLRGQLKEQRVRCRRLAHLLASAQKEPEAAAPAPGTGGDSVCGETHRALQGAMEKLQSRFMELMQEKADLKERVEELEHRCIQLSGETDTIGEYIALYQSQRAVLKERHREKEEYISRLAQDKEEMKVKLLELQELVLRLVGDRNEWHGRFLAAAQNPADEPTSGAPAPQELGAANQQGDLCEVSLAGSVEPAQGEAREGSPRDNPTAQQIMQLLREMQNPRERPGLGSNPCIPFFYRADENDEVKITVI |

Continued, molecule first:

| Molecule | binding [1] | binding (p115-tail-GFP (human)) | binding [2] |
| --- | --- | --- | --- |
| GRASP65 (from UniProt Q9BQQ3 1-440) | binds |  |  |
| PCM1 (from UniProt Q15154 1-2024) | binds |  |  |
| Sec31 (human (endogenous in HEK293T)) | no binding |  |  |
| CDK5RAP2 (from UniProt Q96SN8 1-1893) | binds |  |  |

These are yes or no findings as the source states them, for the method shown. In cells and extracts the contact can be indirect. Here binding means that the protein was enriched with, or labelled near, the bait; the list need not be complete. For some assays here: A no says only that the protein was not detected with the bait. For some assays here: Where a sequence is shown, tags or fusion partners need not be part of it.
